# Test results: patent US20150045313A1, “Ectoparasiticidal Methods and Formulations” (Eli Lilly and Company, priority 2009, published 2015)
# Some entries share one result that the patent states for a list of compounds.
# Tested on: Boophilus annulatus
# Experiment: Whole-body spray treatment of Boophilus annulatus infestations on cattle
# Format: in vivo
# Protocol: C) Efficacy Testing and comparison of topically applied spinetoram with spinosad for the treatment of Boophilus annulatus infestations on cattle. Technical spinetoram and technical spinosad both formulated as 25 g/L suspension concentrate formulations similar to commercial Elector. Stability assays (HPLC and LPT bioassays) were conducted to confirm potency over extended periods of time (5 weeks) at cool and shelf-temperatures. Cattle were pre-infested 21 d prior to treatment with larval-stage B. annulatus ticks resulting the presence of very high numbers of all three life-stages of this tick at the time of treatment. Test materials were diluted to 0.025% (250 ppm) and applied to cattle as whole-body topical sprays in a volume of 10 L per animal. There were a total of six animals per treatment group (n=6). Animals were housed in covered stalls under ambient conditions of temperature and humidity. Engorged, detached adult female ticks were retrieved from animals in each stall on a daily basis. Egg masses were weighed and eggs were set for hatching to assess viability. Efficacy was measured in terms of total numbers of female ticks per animal and index of fecundity (IF).
# Means were tested by General Linear Model (GLM), 1-way ANOVA. Differences (P<0.05) among means were separated using Tukey's all pairwise comparison. […]
substance,measurement,setting,value
spinosad,protection from larval re-infestation through 2 weeks,through 2 weeks,> 96%
same,protection from larval re-infestation through 4 weeks,through 4 weeks,> 80%
